Paper PMC9635925, “Biological screening of a unique drug library targeting MRGPRX2” (Frontiers in Immunology, 2022)
Substitutions are numbered along the chain they refer to.

How the values were obtained:
[1] = biological target: T1, MRGPRX2-MUT (MRGPRX2 N62S mutation) (Homo sapiens, UniProt Q96LB1, N62S); test: Primary HTS, Ca2+ mobilization (fluorescence ratio, B-score) in HEK293-Gα15 cells stably expressing the MRGPRX2 N62S mutation; assay type: cell-based; conditions: Supplementary Table 1
T1 construct: expressed in transfected cells
T1 sequence (Q96LB1 1-330 N62S): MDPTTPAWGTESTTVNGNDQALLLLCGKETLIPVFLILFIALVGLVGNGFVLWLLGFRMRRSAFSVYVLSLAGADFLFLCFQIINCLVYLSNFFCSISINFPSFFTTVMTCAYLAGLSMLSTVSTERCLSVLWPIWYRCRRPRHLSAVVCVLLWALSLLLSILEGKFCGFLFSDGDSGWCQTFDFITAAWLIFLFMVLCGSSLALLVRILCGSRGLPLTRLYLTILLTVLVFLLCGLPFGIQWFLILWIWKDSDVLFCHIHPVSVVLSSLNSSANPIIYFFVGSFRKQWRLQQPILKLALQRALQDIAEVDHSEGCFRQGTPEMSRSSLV
Procedure: (§1) We performed an experimental HTS on the Johns Hopkins Drug Library, which includes 1,811 (57%) FDA-approved drugs among 3,456 total compounds (28% of all known drugs worldwide) ([15]). We performed the HTS at the Johns Hopkins University ChemBioCORE Facility and employed HEK293-Gα15 cell lines that stably expressed MRGPRX2 protein.
(§2) We utilized 10 μM compounds (each compound was tested in triplicate) and calculated the compound effect using the signal-to-background fluorescence ratio (see Supplementary Methods).
(§3) In the HTS, we determined MRGPRX2 activation by a Ca^2+ mobilization assay that recorded a fluorescence change by utilizing a Functional Drug Screening System (FDSS 6000; Hamamatsu); we evaluated the compound effect using the calculated fluorescence ratio. We further applied the B-score normalization, which provided robust corrections for variation in fluorescence ratio ([22]).
(§4) We performed an experimental high-throughput screening (HTS) on the Johns Hopkins Drug Library (JHDL), which includes 1,811 (57%) FDA-approved drugs among 3,456 total compounds (28% of all known drugs worldwide). […] We evaluated compound effect using the calculated fluorescence ratio. We further calculated B-scores, which are a relative potency score similar to Z scores in that they are the ratio of an adjusted raw value in the numerator to a measure of variability in the denominator.

[2] = biological target: T2, MRGPRX2-WT (wild-type MRGPRX2 receptor) (Homo sapiens, UniProt Q96LB1); test: Primary HTS, Ca2+ mobilization (fluorescence ratio, B-score) in HEK293-Gα15 cells stably expressing wild-type MRGPRX2; assay type: cell-based; conditions: 10 μM compound, Supplementary Table 1
T2 construct: expressed in transfected cells
T2 sequence (Q96LB1 1-330): T1 sequence (Q96LB1 1-330 N62S) with S62N
Procedure: as §1, §2, §3, §4

COc1ccc(CC(C)NCC(O)c2ccc(O)c(NC=O)c2)cc1 (stereo not drawn) [Formoterol]
B-scores (MUT) ([1]; 10 μM compound, MRGPRX2-MUT (N62S) cells): 17.88
Change of B-scores (%) ([1]; MRGPRX2-MUT in comparison to MRGPRX2-WT cells, 10 μM): -61.14%
B-scores (WT) [2]: 46.02
